Construct, isoform or probe ends are uncertain for at least one entry. A weaker result is weaker than the reference pair of the same experiment. At least one verdict was read from the data and is not stated in words by the source.
Target: MBP-SlMYC2 (Solanum lycopersicum) (UniProt A0A3Q7HRZ6)
Assay: EMSA
Conditions: binding stated to be G-box-like motif-dependent, extent of loss only visible in gel; LightShift Chemiluminescent EMSA kit (Thermo Scientific), acrylamide gel; pH and temperature not given; recombinant protein; protein details: N-terminal MBP (pMAL-c2)

Chains of the proteins cited; added tags and fusions are not shown. Lines headed by an entry give the natural chain unless they say otherwise; changes in a name come on top.
UniProt A0A3Q7HRZ6: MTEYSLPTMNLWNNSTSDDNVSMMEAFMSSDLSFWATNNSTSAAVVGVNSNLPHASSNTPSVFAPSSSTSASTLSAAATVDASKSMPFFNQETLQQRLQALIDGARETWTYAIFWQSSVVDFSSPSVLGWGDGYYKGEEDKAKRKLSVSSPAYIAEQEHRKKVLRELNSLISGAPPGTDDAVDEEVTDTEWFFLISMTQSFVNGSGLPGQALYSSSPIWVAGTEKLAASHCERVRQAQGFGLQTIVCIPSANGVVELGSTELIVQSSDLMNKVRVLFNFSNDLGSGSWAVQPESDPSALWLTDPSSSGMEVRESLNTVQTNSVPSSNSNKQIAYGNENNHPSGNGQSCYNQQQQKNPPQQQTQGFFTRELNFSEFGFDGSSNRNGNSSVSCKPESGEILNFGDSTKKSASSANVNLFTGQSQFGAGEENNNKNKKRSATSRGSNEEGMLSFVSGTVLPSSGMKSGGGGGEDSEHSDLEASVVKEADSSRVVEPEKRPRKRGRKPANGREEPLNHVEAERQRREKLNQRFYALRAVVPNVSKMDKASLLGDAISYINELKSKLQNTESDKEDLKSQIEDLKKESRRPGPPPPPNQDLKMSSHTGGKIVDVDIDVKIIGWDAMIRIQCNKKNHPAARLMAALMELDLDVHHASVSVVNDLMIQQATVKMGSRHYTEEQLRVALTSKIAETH

“TCGGTTTGACTAAATTCCTAAAGCTTGCACTAAAATGAAACC / GGTTTCATTTTAGTGCAAGCTTTATGGAATTTAGTCAAACCGA [TomLoxDpro probe-369 Mut]”: binds more weakly.

— publication PMC3861047
